Experimental findings from PubChem BioAssay AID493014 (National Center for Advancing Translational Sciences (NCATS), 2011) are described below.

This assay can be described thus: qHTS Assay to Find Inhibitors of Chronic Active B-Cell Receptor Signaling. To be noted: ABC-DLBCL IkBa-CBG/CBR reporter, luminescence ratio (green luciferase fused to IkBa over red control in TMD8 lymphoma cells), 4 h. The gist of the method:
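TMD8 ABC-DLBCL cells carrying doxycycline-inducible green luciferase fused to IkappaBalpha plus unfused red luciferase were exposed to compounds (up to 46 uM) for 4 hrs at 37C. Activity came from the overlap-corrected green/red luminescence ratio.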
A general note: In qHTS, concentration-response curves come from the screen itself.

The mark [1] stands for this setting: measured here: CBR red luminescence, cell number.
The mark [2] stands for this setting: measured here: IkBa-CBG green luminescence.

Some of the results follow. Further columns of the screen follow, without active or inactive calls. Compounds called inactive in the main read-out are mostly missing here. The note in brackets gives the kind of curve behind each potency; many fits are weak.

In the case of `COc1ccc(/C=N\NC(=O)c2cc(O)c(O)c(O)c2)cc1CN1CCN(c2ccc(F)cc2)CC1`, under setting [1], the AC50 is 29.1 µM [falling, single point]. Regarding `CC(c1ccc(Cl)cc1)n1c(-c2ccc3ccccc3n2)n[nH]c1=S` (centres undefined), under setting [1], the half-maximal activity concentration (AC50) is 20 µM [rising, partial curve, poor fit]. Consider `Cc1noc(/C=C/N(C)C)c1S(=O)(=O)N1CCCC(C(=O)Nc2ccc3c(c2)OCO3)C1` (centres undefined), for which, under setting [1], the AC50 was 0.58 µM [rising, full curve, poor fit]. For `Cc1ccc(S(=O)(=O)Nc2ccc(N=Nc3ccc(O)cc3)cc2)cc1`, the AC50 under setting [1] was 29.1 µM [falling, single point] and the AC50 under setting [2] was 23.1 µM [rising, partial curve, poor fit]. Turning to `CC(C)CNC(=O)c1cc(-c2ccco2)on1`, the half-maximal activity concentration (AC50) under setting [1] was 7.94 µM [falling, partial curve, poor fit]. On to `CC(C)c1ccc(OCC(O)CNC(C)c2ccccc2)cc1` (centres undefined), for which the AC50 under setting [1] is 3.16 µM [falling, partial curve, poor fit]. Consider `C[C@H](CO)N1C[C@H](C)[C@@H](CN(C)C(=O)Nc2ccc3c(c2)OCO3)Oc2c(NS(=O)(=O)c3cn(C)cn3)cccc2C1=O`, for which, under setting [1], the AC50 was 29.1 µM [rising, single point]. The same measure, in the same setting: in the case of `Cc1cc(C)c2sc(NNC(=O)c3ccc(S(=O)(=O)N4CCc5ccccc5C4)cc3)nc2c1` it was 20.6 µM [rising, single point]. As for `COc1ccc(-c2ccc(CCC(=O)O)n2-c2ccccc2OC)cc1`, the half-maximal activity concentration (AC50) under setting [1] is 11.2 µM [rising, partial curve] and the AC50 under setting [2] is 11.2 µM [falling, partial curve]. Turning to `O=C(Oc1c(CN2CCOCC2)cc(Cl)c2cccnc12)c1ccccc1F`, the AC50 under setting [2] was 2.24 µM [falling, partial curve]. For `O=C(NNC1OC(CO)C(O)C(O)C1O)c1cccc(Br)c1` (centres undefined), the half-maximal activity concentration (AC50) under setting [1] was 8.91 µM [falling, partial curve]. Same read-out and setting: with `CCSc1nnc(NC(=O)CSc2nc3c(c(=O)n2-c2ccccc2OC)SCC3)s1` the figure was 25.9 µM [falling, partial curve, poor fit]. Still for that read-out and setting: with `CCOc1ccc(-c2[nH]ncc2Oc2cccc(OC)c2)c(O)c1` the figure was 35.5 µM [rising, single point]; with `COC(=O)C(NC(C)=O)(Nc1sc2c(c1C(N)=O)CCCC2)C(F)(F)F` (centres undefined), 3.26 µM [rising, full curve, poor fit]; with `CC(C)N1CCc2c(sc(NC(=O)c3cc(-c4cccs4)nc4ccccc34)c2C(N)=O)C1`, 16.4 µM [falling, partial curve, poor fit]. Same read-out and setting: in the case of `O=C(COC(=O)Cn1cnc2ccccc21)Nc1ccc2c(c1)C(=O)c1ccccc1C2=O` it was 1.64 µM [rising, partial curve, poor fit]; in that of `COc1cc(C(=O)NCC2CCCO2)cc(OC)c1OC` (centres undefined), 6.51 µM [rising, partial curve, poor fit].

As for `CC1CCc2c(sc3nc(C(C)(C)C)nc(N4CCN(C(=O)CCl)CC4)c23)C1` (centres undefined), the half-maximal activity concentration (AC50) under setting [1] is 12.6 µM [falling, single point].

Consider `COc1ccc2sc(N(CCCN(C)C)C(=O)c3ccc(S(=O)(=O)N(C)C4CCCCC4)cc3)nc2c1`, for which the concentration at half-maximal activity (AC50) under setting [1] is 23.1 µM [falling, single point]. Still for that read-out and setting: with `COC(=O)COc1ccc(S(=O)(=O)Nc2ccc(C(N)=O)cc2)cc1Cl` the figure was 28.2 µM [rising, single point]. On the same count and under the same terms, with `CCOc1ccc(-n2c(=S)sc3c(=O)n(-c4ccccc4)c(SCC(=O)O)nc32)cc1` the figure was 14.1 µM [falling, single point]; with `O=C(/C=C/c1ccc(S(=O)(=O)N2CCOCC2)cc1)Nc1ccc(F)c(F)c1F`, 9.2 µM [falling, partial curve, poor fit]. As for `Cc1cccc(N=Cc2[nH]c3ccc(Br)c(Cl)c3c2O)c1`, the concentration at half-maximal activity (AC50) under setting [1] was 20.6 µM [falling, partial curve].

On to `COC(=O)C1=C(C)N(Cc2ccccc2)C(=NCCCOC(C)C)N[C@H]1c1ccccc1`, for which the half-maximal activity concentration (AC50) under setting [1] is 23.1 µM [falling, single point].

Consider `Cc1ccc2nc(NC(=O)CSCC(=O)OCC(=O)c3ccccc3)sc2c1`, for which the concentration at half-maximal activity (AC50) under setting [1] is 0.731 µM [falling, full curve]. Turning to `NC(=O)c1ccccc1N=Cc1ccc2ccccc2c1`, under setting [1], the concentration at half-maximal activity (AC50) was 2.31 µM [rising, partial curve, poor fit]. In the case of `c1ccc(CCCc2nc(-c3ccccn3)no2)cc1`, the AC50 under setting [1] is 0.58 µM [rising, full curve]. The same measure, in the same setting: with `O=C(c1ccc(S(=O)(=O)c2ccccc2Cl)c([N+](=O)[O-])c1)N1CCN(Cc2ccccc2)CC1` the figure was 20.6 µM [falling, partial curve, poor fit]; with `O=C(COc1ccccc1)Nc1cccc(S(=O)(=O)N2CCCC2)c1`, 20.6 µM [falling, partial curve, poor fit]. As for `Cc1cc2ncn(C(=O)c3c(-c4c(Cl)cccc4Cl)noc3C)c2cc1C`, under setting [1], the AC50 was 1.78 µM [rising, partial curve]. Take `O=C(CCC(=O)Nc1nnc(C2CCCCC2)s1)NCc1ccccc1`: under setting [1], the half-maximal activity concentration (AC50) is 0.282 µM [rising, full curve, poor fit]. The same measure, in the same setting: in the case of `C/C(=N\NC(=O)CN1CCN(Cc2ccccc2)CC1)c1ccncc1` it was 1.26 µM [rising, full curve, poor fit]; in that of `CS(=O)(=O)n1nc(OC(=O)c2cccc3ccccc23)cc1N`, 11.2 µM [falling, partial curve, poor fit]; in that of `O=C(Nc1cc(Cl)ccc1O)C1CC(c2ccccc2Cl)=NO1` (centres undefined), 12.6 µM [falling, single point]. `CCC1(c2ccccc2)NC(=O)N(CC(=O)Nc2ccc(Cl)c(S(=O)(=O)N3CCCCC3)c2)C1=O` (centres undefined): the AC50 under setting [1] is 2.91 µM [falling, full curve]. On to `Cc1nn(-c2ccccc2)c2[nH]c(=O)c(CNCc3ccc4c(c3)OCO4)cc12`, for which the AC50 under setting [1] was 35.5 µM [falling, single point]. Take `CCOc1cc(N2CCOCC2)c(OCC)cc1NC(=O)c1ccc(OC)c(S(=O)(=O)N2CCOCC2)c1`: the half-maximal activity concentration (AC50) under setting [1] was 0.92 µM [rising, partial curve, poor fit]. Turning to `COc1cccc(C(=O)Nc2ccc3c(cc2=O)[C@@H](NC(C)=O)CCc2cc(OC)c(OC)c(OC)c2-3)c1`, the half-maximal activity concentration (AC50) by setting is: under setting [1], 0.631 µM [rising, full curve, poor fit]; under setting [2], 20 µM [falling, partial curve]. As for `CCOC(=O)N1CCN(C(=O)c2ccc(Cl)c(S(=O)(=O)Nc3ccccc3)c2)CC1`, the AC50 under setting [1] was 2.91 µM [falling, full curve]. As to `Cc1ccnc(NC(=O)c2cccc(NC(=O)Cc3ccccc3)c2)c1`, the AC50 under setting [1] is 6.31 µM [falling, single point]. Regarding `Cc1nc2ccccc2c(=O)n1NC(=O)c1ccccc1`, under setting [1], the AC50 was 25.1 µM [falling, single point]. Still for that read-out and setting: in the case of `O=C(NCc1cccnc1)c1ccc(-c2cc(Cl)ccc2Cl)o1` it was 35.5 µM [falling, single point]; in that of `Cc1c(Cl)cccc1NC(=O)CSc1ncccc1C(=O)Oc1ccccc1Cl`, 10 µM [rising, partial curve, poor fit]. As to `Nc1cccnc1Sc1cc(Cl)c(Cl)cc1Cl`, the AC50 under setting [1] was 29.1 µM [rising, single point]. The same measure, in the same setting: in the case of `O=C(CCn1nc(-c2ccc(Cl)cc2)c2ccccc2c1=O)NCC1CCCO1` (centres undefined) it was 29.1 µM [falling, single point]; in that of `Cc1ccc(S(=O)(=O)Nc2ccc(-c3nnc(SCc4ccccc4Cl)o3)cc2)cc1`, 3.66 µM [rising, full curve, poor fit]. The same measure, in the same setting: in the case of `C=CCNC(=O)COC(=O)c1ccccc1C(=O)N(C)C1CCCCC1` it was 14.6 µM [rising, partial curve, poor fit]; in that of `Cc1ccc2[nH]c(=O)c(C(c3nnnn3CC3CCCO3)N3CCc4ccccc4C3)cc2c1` (centres undefined), 25.9 µM [falling, single point]; in that of `Cc1ccc2oc(C(=O)N3CCN(CCO)CC3)c(C)c2c1`, 17.8 µM [rising, single point]. Take `CSc1nnc(NC(=O)c2nc(S(=O)(=O)Cc3ccccc3)ncc2Cl)s1`: the concentration at half-maximal activity (AC50) under setting [1] was 35.5 µM [falling, single point]. As to `COc1ccc(S(N)(=O)=O)cc1C(=O)OCCCOC(=O)c1cc(S(N)(=O)=O)ccc1OC`, the AC50 under setting [1] was 2.24 µM [rising, full curve] and the half-maximal activity concentration (AC50) under setting [2] was 2.24 µM [falling, partial curve].

For the molecule `O=C1Nc2ccc3sc4ccccc4c3c2C1=O`, the AC50 under setting [2] is 22.4 µM [rising, partial curve, poor fit]. In the case of `Cc1cccc(NC2=NC(=S)N(CC#N)C23CCCCC3)c1`, the AC50 was 18.4 µM [rising, partial curve, poor fit] under setting [1] and 23.1 µM [falling, partial curve, poor fit] under setting [2]. In the case of `COc1cc(C2c3cc4c(cc3C(OC3OC5COC(c6cccs6)OC5C(O)C3O)C3COC(=O)C23)OCO4)cc(OC)c1O` (centres undefined), the AC50 runs as follows: under setting [1], 35.5 µM [falling, single point]; under setting [2], 4.47 µM [rising, partial curve, poor fit]. For `Cc1ccc(CN2CC(C(=O)N(Cc3nnc(-c4ccccc4Cl)o3)C3CC3)CC2=O)cc1` (centres undefined), the AC50 under setting [1] is 6.51 µM [falling, partial curve, poor fit]. The same measure, in the same setting: in the case of `CCOC(=O)c1sc(C)c2c1NC(C)(c1cccc3ccccc13)NC2=O` (centres undefined) it was 0.58 µM [falling, full curve, poor fit]; in that of `COc1ccc(CC(=O)NCc2ccco2)cc1OC`, 3.26 µM [falling, partial curve, poor fit]. Turning to `COc1ccc(Br)cc1CN(C)C(=O)C1=CC=CN2CCS(=O)(=O)N=C12`, the AC50 under setting [1] is 29.1 µM [rising, single point].

One may read the AC50 as the midpoint of the concentration-response curve, whichever way the signal moves.
